{
  "sequences": {"note": "By UniProt entry, the sequences of proteins in these tests, tags left out. Residues count along the entry.", "UniProt P15187, residues 1-296": "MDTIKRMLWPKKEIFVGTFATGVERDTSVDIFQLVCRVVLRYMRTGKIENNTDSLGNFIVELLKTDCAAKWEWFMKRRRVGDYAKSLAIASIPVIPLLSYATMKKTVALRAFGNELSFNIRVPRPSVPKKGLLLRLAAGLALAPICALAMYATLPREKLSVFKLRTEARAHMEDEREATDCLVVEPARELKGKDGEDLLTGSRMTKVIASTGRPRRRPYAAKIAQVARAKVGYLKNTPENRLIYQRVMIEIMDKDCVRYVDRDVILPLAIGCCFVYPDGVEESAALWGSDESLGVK", "UniProt P10591": "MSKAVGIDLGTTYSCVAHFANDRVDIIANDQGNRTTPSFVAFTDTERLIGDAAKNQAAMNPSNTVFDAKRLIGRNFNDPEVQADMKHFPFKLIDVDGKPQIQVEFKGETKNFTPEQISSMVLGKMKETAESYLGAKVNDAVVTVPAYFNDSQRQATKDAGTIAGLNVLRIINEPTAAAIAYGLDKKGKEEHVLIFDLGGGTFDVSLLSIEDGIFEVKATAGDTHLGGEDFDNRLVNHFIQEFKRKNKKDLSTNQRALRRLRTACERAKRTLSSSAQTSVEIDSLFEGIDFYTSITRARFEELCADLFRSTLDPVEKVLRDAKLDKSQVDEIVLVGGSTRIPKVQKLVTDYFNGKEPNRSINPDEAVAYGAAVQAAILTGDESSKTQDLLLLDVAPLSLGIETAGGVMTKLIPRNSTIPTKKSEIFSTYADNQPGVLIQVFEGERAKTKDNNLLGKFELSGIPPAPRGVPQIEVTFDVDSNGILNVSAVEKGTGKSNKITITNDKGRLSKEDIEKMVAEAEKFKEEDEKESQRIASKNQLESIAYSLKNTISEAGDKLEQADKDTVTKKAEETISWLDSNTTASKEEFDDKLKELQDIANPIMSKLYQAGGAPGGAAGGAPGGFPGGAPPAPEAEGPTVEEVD", "UniProt Q9LHG8, residues 1-186": "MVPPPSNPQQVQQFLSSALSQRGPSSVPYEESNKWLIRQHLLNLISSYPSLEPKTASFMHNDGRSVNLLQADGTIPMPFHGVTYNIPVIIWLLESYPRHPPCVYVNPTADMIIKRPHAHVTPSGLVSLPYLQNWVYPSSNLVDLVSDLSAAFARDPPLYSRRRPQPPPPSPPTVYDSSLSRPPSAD", "UniProt Q9FFY6, residues 1-175": "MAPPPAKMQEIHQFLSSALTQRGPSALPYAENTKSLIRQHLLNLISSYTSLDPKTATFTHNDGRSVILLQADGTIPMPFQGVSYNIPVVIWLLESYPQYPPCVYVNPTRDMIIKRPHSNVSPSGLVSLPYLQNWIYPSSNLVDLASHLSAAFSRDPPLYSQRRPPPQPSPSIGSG"},
  "source": "paper PMC2791863",
  "molecules": {"B1": {"name": "HA-tagged Bro1p (Bro1-6xHA, chromosomal) (protein, UniProt P48582 1-844)", "chain": "MKPYLFDLKLKDTEKLDWKKGLSSYLKKSYGSSQWRTFYDEKATSELDHLRNNANGELAPSSLSEQNLKYYSFLEHLYFRLGSKGSRLKMDFTWYDAEYSSAQKGLKYTQHTLAFEKSCTLFNIAVIFTQIARENINEDYKNSIANLTKAFSCFEYLSENFLNSPSVDLQSENTRFLANICHAEAQELFVLKLLNDQISSKQYTLISKLSRATCNLFQKCHDFMKEIDDDVAIYGEPKWKTTVTCKLHFYKSLSAYYHGLHLEEENRVGEAIAFLDFSMQQLISSLPFKTWLVEFIDFDGFKETLEKKQKELIKDNDFIYHESVPAVVQVDSIKALDAIKSPTWEKILEPYMQDVANKCDSLYRGIIPLDVYEKESIYSEEKATLLRKQVEETETANLEYSSFIEFTNLPRLLSDLEKQFSDGNIFSNTDTQGQLMRDQIQTWCKFIQTNEFRDIEEQMNKIVFKRKQILEILSALPNDQKENVTKLKSSLVAASNSDEKLFACVKPHIVEINLLNDNGKIWKKFDEFNRNTPPQPSLLDIDDTKNDKILELLKQVKGHAEDLRTLKEERSRNLSELRDEINNDDITKLLIINKGKSDVELKDLFEVELEKFEPLSTRIEATIYKQSSMIDDIKAKLDEIFHLSNFKDKSSGEEKFLEDRKNFFDKLQEAVKSFSIFASDLPKGIEFYDSLFNMSRDLAERVRVAKQTEDSTANSPAPPLPPLDSKASVVGGPPLLPQKSAAFQSLSRQGLNLGDQFQNLKISAGSDLPQGPGIPPRTYEASPYAATPTMAAPPVPPKQSQEDMYDLRRRKAVENEERELQENPTSFYNRPSVFDENMYSKYSS"}, "B2": {"name": "Bro1p accessory ESCRT protein (yeast, split-ubiquitin prey pPR-C-BRO1) (protein, UniProt P48582 1-844)", "chain": "B1 chain"}, "B3": {"name": "HA-tagged UEV domain of Vps23p (UEV-6xHA, chromosomal) (domain or fragment, UniProt P25604 12-161)", "chain": "AVVNWLFKVIQPIYNDGRTTFHDSLALLDNFHSLRPRTRVFTHSDGTPQLLLSIYGTISTGEDGSSPHSIPVIMWVPSMYPVKPPFISINLENFDMNTISSSLPIQEYIDSNGWIALPILHCWDPAAMNLIMVVQELMSLLHEPPQDQAP"}, "B4": {"name": "Vps23p ESCRT-I protein (yeast, split-ubiquitin prey pPR-N-VPS23) (protein, UniProt P25604 1-385)", "chain": "MSANGKISVPEAVVNWLFKVIQPIYNDGRTTFHDSLALLDNFHSLRPRTRVFTHSDGTPQLLLSIYGTISTGEDGSSPHSIPVIMWVPSMYPVKPPFISINLENFDMNTISSSLPIQEYIDSNGWIALPILHCWDPAAMNLIMVVQELMSLLHEPPQDQAPSLPPKPNTQLQQEQNTPPLPPKPKSPHLKPPLPPPPPPQPASNALDLMDMDNTDISPTNHHEMLQNLQTVVNELYREDVDYVADKILTRQTVMQESIARFHEIIAIDKNHLRAVEQAIEQTMHSLNAQIDVLTANRAKVQQFSSTSHVDDEDVNSIAVAKTDGLNQLYNLVAQDYALTDTIECLSRMLHRGTIPLDTFVKQGRELARQQFLVRWHIQRITSPLS"}},
  "key": {"[1]": {"target": "p33 replication protein (split-ubiquitin bait, pGAD-BT2-N-His33) (not stated (TBSV p33 in the results; the p33 of pGBK-His33 is called CNV p33 in the methods)) (UniProt P15187)", "assay": "two-hybrid; split-ubiquitin assay (Dualmembrane kit 3); bait p33 co-expressed with NubG prey proteins in wt (NMY51) or vps4Δ yeast; interactions scored by growth on Trp-/Leu-/His-/Ade- plates"}, "[2]": {"target": "p33 replication protein tagged with FLAG and 6xHis (p33HF) (not stated (TBSV p33 in the results; the p33 of pGBK-His33 is called CNV p33 in the methods)) (UniProt P15187)", "assay": "co-IP; p33HF purified from yeast extracts on anti-FLAG M2 agarose (washing at room temperature); co-purified 6xHA-tagged proteins detected by Western blot with anti-HA antibody"}, "[3]": {"target": "p33 replication protein (split-ubiquitin bait, pGAD-BT2-N-His33) (not stated (TBSV p33 in the results; the p33 of pGBK-His33 is called CNV p33 in the methods)) (UniProt P15187)", "assay": "two-hybrid; split-ubiquitin assay (Dualmembrane kit 3); bait p33 co-expressed with NubG prey proteins in wt (NMY51) or vps4Δ yeast; interactions scored by growth on Trp-/Leu-/His-/Ade- plates", "remark": "listed apart in the source"}},
  "note": "Where two headings read alike, the source gives them in different places. Results are given in words; binding and its absence hold for the method and conditions named. For some of these results: Binding seen in cells or lysates may run through a third protein. Some results given as binding are weak or reduced against the parent protein; the word gives no strength. For some of these results: Tags and fused reporters may be left off the sequences shown.",
  "data": [
    {"molecule": "Ssa1p, the yeast heat shock protein 70 (split-ubiquitin prey) (from UniProt P10591 1-642)", "values": [
      {"measurement": "binding", "setting": "[1]", "result": "binds"}
    ]},
    {"molecule": "A. thaliana UEV-1 (UEV domain of the Vps23p homologue At3g12400, aa 1-186) (from UniProt Q9LHG8 1-186) (domain or fragment)", "values": [
      {"measurement": "binding", "setting": "[1]", "result": "binds"}
    ]},
    {"molecule": "A. thaliana UEV-2 (UEV domain of the Vps23p homologue At5g13860, aa 1-175) (from UniProt Q9FFY6 1-175) (domain or fragment)", "values": [
      {"measurement": "binding", "setting": "[1]", "result": "binds"}
    ]},
    {"molecule": "B1", "values": [
      {"measurement": "binding", "setting": "[2]", "result": "binds"}
    ]},
    {"molecule": "B2", "values": [
      {"measurement": "binding", "setting": "[3]", "result": "binds weakly"}
    ]},
    {"molecule": "B3", "values": [
      {"measurement": "binding", "setting": "[2]", "result": "binds"}
    ]},
    {"molecule": "B4", "values": [
      {"measurement": "binding", "setting": "[3]", "result": "binds weakly"}
    ]}
  ]
}
